# Results reported in patent US20220170028A1, “NOVEL INTERLEUKIN-2 VARIANTS AND BIFUNCTIONAL FUSION MOLECULES THEREOF” (Cugene Inc, priority 2019, published 2022).
# Some results were stated once for a whole list of compounds, not compound by compound.
# Experiment: Aggregate content by size-exclusion chromatography after Protein A purification
# Type: physicochemical
# Conditions: Example 4
# Description: For affinity chromatography each supernatant was loaded on a HiTrap MabSelectSure column (CV=5 mL, GE Healthcare) equilibrated with 25 ml phosphate buffered saline, pH 7.2 (ThermoFisher). Unbound protein was removed by washing with 5 column volumes PBS, pH 7.2 and target protein was eluted with 25 mM sodium citrate, 25 mM sodium chloride, pH 3.2. Protein solution was neutralized by adding 3% of 1 M Tris pH 10.2. Ion exchange chromatography or mix-mode chromatography, including but not limited to CaptoMMC (GE Healthcare), ceramic hydroxyapatite, or ceramic fluoroapatite (Bio-Rad) was also utilized to polish the Protein A material as needed. Target protein was concentrated with an Amicon®Ultra-15 concentrator 10 KDa NMWC (Merck Millipore Ltd.)
# The purity and molecular weight of the purified constructs were analyzed by SDS-PAGE with and in the absence of a reducing agent and staining with Coomassie (Imperial® Stain). […] The protein concentration of purified protein samples was determined by measuring the UV absorbance at 280 nm (Nanodrop Spectrophotometer, ThermoFisher) divided by the molar extinction coefficient calculated on the basis of the amino acid sequence. The aggregate content of the constructs was analyzed on an Agilent 1200 high-performance liquid chromatography (HPLC) system. […]
substance,measurement,value
"P-0254: IL-2 N88R Fc fusion, SEQ ID NO: 73",aggregates / high-molecular weight species (SEC),30-40%
"P-0324: IL-2 D20T/N88R Fc fusion, SEQ ID NO: 98",aggregates / high-molecular weight species (SEC),30-40%
